# Data from the supplement of paper PMC6411743.
# ± gives the standard deviation of the averaged measurements. This is a selection; strong and weak results do not stand in their true shares.
# What was measured:
# Test in all cases: NP40-soluble protein abundance relative to vehicle (solubility fold change) (ratio); higher = more soluble protein in presence of AMP-PNP
# [1] = target: T1, H0YBI6 and related entries (UniProt Q86VQ6)
# T1 sequence (whole entry): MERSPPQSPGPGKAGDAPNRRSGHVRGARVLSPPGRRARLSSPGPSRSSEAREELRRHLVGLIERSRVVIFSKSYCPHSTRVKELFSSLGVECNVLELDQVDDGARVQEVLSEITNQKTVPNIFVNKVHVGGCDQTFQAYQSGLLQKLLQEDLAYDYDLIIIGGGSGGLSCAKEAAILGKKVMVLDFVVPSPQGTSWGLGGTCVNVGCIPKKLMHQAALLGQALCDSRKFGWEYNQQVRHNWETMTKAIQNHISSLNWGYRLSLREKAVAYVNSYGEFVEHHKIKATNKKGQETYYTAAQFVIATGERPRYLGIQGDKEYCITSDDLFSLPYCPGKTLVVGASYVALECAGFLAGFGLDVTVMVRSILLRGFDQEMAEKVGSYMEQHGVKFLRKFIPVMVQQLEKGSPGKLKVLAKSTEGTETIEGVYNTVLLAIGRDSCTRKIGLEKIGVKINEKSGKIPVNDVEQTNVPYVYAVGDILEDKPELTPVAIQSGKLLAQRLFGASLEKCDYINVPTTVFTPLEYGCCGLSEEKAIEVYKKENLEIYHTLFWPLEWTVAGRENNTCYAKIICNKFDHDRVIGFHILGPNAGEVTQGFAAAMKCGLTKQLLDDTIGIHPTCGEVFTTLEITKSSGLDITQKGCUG
# Procedure, shortened: (§1)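 Each value is a fold change relative to the detergent-processed vehicle, calculated per replicate from vsn-normalised intensities. Jurkat crude lysate received eight concentrations (0.1 to 10 mM) for 10 min at room temperature and 3 min at 37 °C, then was solubilised in 0.8% NP40 with benzonase (60 min, 4 °C). The ultracentrifuged supernatant was TMT-labelled and run by LC-MS/MS in three independent experiments.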
# [2] = target: T2, H0YMI4 and related entries (UniProt Q9Y6I4)
# T2 sequence (whole entry): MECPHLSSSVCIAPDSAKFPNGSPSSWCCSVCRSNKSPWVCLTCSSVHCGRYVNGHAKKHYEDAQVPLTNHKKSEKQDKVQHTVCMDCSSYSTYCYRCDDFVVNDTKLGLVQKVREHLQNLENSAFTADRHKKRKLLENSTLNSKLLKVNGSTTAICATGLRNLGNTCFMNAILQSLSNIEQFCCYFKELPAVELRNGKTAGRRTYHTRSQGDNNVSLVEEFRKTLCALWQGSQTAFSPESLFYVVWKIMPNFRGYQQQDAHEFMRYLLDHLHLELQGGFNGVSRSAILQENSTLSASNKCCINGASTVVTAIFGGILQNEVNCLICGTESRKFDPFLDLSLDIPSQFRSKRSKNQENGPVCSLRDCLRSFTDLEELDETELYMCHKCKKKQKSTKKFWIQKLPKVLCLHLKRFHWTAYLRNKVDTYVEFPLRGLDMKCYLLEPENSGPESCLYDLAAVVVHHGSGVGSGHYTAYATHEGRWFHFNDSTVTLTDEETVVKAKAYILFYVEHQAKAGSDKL
# Procedure, shortened: as §1
# [3] = target: T3, H3BNT4 and related entries (UniProt Q99547)
# T3 sequence (whole entry): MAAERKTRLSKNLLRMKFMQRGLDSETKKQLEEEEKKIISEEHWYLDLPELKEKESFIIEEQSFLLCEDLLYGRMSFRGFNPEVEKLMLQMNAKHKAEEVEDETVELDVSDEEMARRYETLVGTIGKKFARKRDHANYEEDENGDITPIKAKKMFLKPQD
# Procedure, shortened: as §1
# [4] = target: T4, H7C3D5 and related entries (UniProt Q8NC44)
# T4 sequence (whole entry): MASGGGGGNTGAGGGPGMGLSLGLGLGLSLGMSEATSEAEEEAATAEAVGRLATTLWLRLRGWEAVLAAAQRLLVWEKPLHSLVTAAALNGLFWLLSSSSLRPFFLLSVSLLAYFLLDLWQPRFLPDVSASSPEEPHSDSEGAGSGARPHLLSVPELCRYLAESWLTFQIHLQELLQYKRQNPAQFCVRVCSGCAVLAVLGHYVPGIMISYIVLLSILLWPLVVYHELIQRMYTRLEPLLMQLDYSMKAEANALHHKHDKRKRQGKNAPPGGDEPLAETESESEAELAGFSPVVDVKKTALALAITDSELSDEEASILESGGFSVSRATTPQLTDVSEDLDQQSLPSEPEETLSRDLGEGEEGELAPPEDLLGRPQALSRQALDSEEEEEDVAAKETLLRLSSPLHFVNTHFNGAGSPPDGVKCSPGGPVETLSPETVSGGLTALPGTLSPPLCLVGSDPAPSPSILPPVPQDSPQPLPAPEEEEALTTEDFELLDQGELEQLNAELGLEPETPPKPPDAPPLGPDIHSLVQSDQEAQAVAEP
# Procedure, shortened: as §1
# [5] = target: T5, I3L1Q3 and related entries (UniProt Q8TE02)
# T5 sequence (whole entry): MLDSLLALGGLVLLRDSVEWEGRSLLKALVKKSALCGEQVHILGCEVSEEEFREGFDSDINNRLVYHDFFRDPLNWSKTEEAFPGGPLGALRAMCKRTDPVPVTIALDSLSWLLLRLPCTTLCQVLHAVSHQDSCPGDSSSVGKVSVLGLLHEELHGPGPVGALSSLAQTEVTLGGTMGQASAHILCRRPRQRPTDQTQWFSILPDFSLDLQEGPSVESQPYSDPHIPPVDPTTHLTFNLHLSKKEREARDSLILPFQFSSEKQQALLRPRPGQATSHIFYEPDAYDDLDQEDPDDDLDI
# Procedure, shortened: as §1
compound,measurement,setting,value
Nc1ncnc2c1ncn2[C@@H]1O[C@H](COP(=O)(O)OP(=O)(O)NP(=O)(O)O)[C@@H](O)[C@H]1O [adenylyl imidodiphosphate],NP40-soluble protein abundance,[1]; concentration: 2mM,0.993 ± 0.052
same,NP40-soluble protein abundance,[1]; concentration: 4mM,0.97 ± 0.044
same,NP40-soluble protein abundance,[1]; concentration: 6mM,0.961 ± 0.024
same,NP40-soluble protein abundance,[1]; concentration: 8mM,0.981 ± 0.041
same,NP40-soluble protein abundance,[1]; concentration: 10mM,0.954 ± 0.055
same,NP40-soluble protein abundance,[2]; concentration: 1mM,1.025 ± 0.0081
same,NP40-soluble protein abundance,[2]; concentration: 2mM,0.986 ± 0.1
same,NP40-soluble protein abundance,[2]; concentration: 4mM,1.03 ± 0.02
same,NP40-soluble protein abundance,[2]; concentration: 6mM,1.01 ± 0.019
same,NP40-soluble protein abundance,[2]; concentration: 8mM,1.03 ± 0.021
same,NP40-soluble protein abundance,[2]; concentration: 10mM,1.01 ± 0.016
same,NP40-soluble protein abundance,[3]; concentration: 1mM,1.01 ± 0.024
same,NP40-soluble protein abundance,[3]; concentration: 2mM,1.09 ± 0.065
same,NP40-soluble protein abundance,[3]; concentration: 4mM,1.03 ± 0.039
same,NP40-soluble protein abundance,[3]; concentration: 6mM,1.04 ± 0.048
same,NP40-soluble protein abundance,[3]; concentration: 8mM,0.998 ± 0.06
same,NP40-soluble protein abundance,[3]; concentration: 10mM,1.02 ± 0.033
same,NP40-soluble protein abundance,[4]; concentration: 1mM,1.01 ± 0.037
same,NP40-soluble protein abundance,[4]; concentration: 2mM,0.99 ± 0.051
same,NP40-soluble protein abundance,[4]; concentration: 4mM,1.03 ± 0.03
same,NP40-soluble protein abundance,[4]; concentration: 6mM,0.985 ± 0.01
same,NP40-soluble protein abundance,[4]; concentration: 8mM,0.989 ± 0.029
same,NP40-soluble protein abundance,[4]; concentration: 10mM,0.989 ± 0.051
same,NP40-soluble protein abundance,[5]; concentration: 1mM,0.981 ± 0.052
same,NP40-soluble protein abundance,[5]; concentration: 2mM,0.968 ± 0.032
same,NP40-soluble protein abundance,[5]; concentration: 4mM,0.966 ± 0.062

# A different layout for some results above.
compound | measurement | setting | value
Nc1ncnc2c1ncn2[C@@H]1O[C@H](COP(=O)(O)OP(=O)(O)NP(=O)(O)O)[C@@H](O)[C@H]1O [adenylyl imidodiphosphate] | NP40-soluble protein abundance | [4]; concentration: 4mM | 1.03 ± 0.03
same | NP40-soluble protein abundance | [4]; concentration: 6mM | 0.985 ± 0.01
same | NP40-soluble protein abundance | [4]; concentration: 8mM | 0.989 ± 0.029
same | NP40-soluble protein abundance | [4]; concentration: 10mM | 0.989 ± 0.051
same | NP40-soluble protein abundance | [5]; concentration: 1mM | 0.981 ± 0.052
same | NP40-soluble protein abundance | [5]; concentration: 2mM | 0.968 ± 0.032
same | NP40-soluble protein abundance | [5]; concentration: 4mM | 0.966 ± 0.062
